The source of these data is US10206987.

The assay concerns the target T1, TIM2-receptor of a B-cell (UniProt Q8R183).
T1 sequence (looked up): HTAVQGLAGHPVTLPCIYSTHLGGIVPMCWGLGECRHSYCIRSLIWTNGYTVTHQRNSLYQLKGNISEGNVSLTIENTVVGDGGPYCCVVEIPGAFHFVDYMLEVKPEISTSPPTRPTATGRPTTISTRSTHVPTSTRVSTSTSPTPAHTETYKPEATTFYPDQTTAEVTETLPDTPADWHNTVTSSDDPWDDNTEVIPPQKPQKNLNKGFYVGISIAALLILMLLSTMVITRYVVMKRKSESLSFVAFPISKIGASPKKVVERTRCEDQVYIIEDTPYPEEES
The assay is described as follows: in vivo lymph node targeting in mice, NIR fluorescence imaging of cy5.5-labelled nanoparticles (no direct binding assay described).

No constants are given. Whether binding was seen depends on the method and setting. Some binding calls cover weakened binding; strength is not graded here.

On to “human ferritin heavy chain protein nanoparticle (from UniProt P02794 1-183)”, for which the binding result is “binds”.
